PubChem BioAssay AID1259308, NCATS, 2017

Test: 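Genes whose loss raises luciferase production in HEK293 cells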 (primary screen)
Cells: human HEK293 embryonic kidney cells stably expressing firefly luciferase (HEK-CMV-Luc2-Hygro)
Knock-down reagent: single siRNA against human genes, 0.8 pmol siRNA per well
Timing: 72 h
Detection: 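Reporter luminescence and viable-cell signal on separate replicate plates, given as percent of non-targeting control and median/MAD z-scores, plus per-cell luciferase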
Reading the numbers: total luciferase, z-score and total luciferase, % of control: higher = more reporter protein produced
Hit rule: 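An siRNA counts as active if its total luciferase robust z-score exceeds 3; genes with two or more such siRNAs out of three were retested with fresh siRNAs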
Meaning of the calls: active = raised luciferase; inactive = no rise
The deposit covers about 59,000 reagents; this is an unselected part. In the full data, about 1,510 (2.6%) were called active. 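Calls use total luciferase alone and ignore viability, so some active siRNAs may act by altering cell number.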 The numbers tell different reagents against one gene apart. Further read-outs or replicates are left out here. Reagent sequences are not shown.

The first 2 entries, to show the layout:
A2ML1 #1: total luciferase, z-score = -0.0681; total luciferase, % of control = 80.5; Outcome = inactive
A2ML1 #2: total luciferase, z-score = -0.341; total luciferase, % of control = 75.1; Outcome = inactive

The list itself, from the first entry:
A2ML1 #1: total luciferase, z-score = -0.0681; total luciferase, % of control = 80.5; Outcome = inactive
A2ML1 #2: total luciferase, z-score = -0.341; total luciferase, % of control = 75.1; Outcome = inactive
A2ML1 #3: total luciferase, z-score = 1.21; total luciferase, % of control = 106; Outcome = inactive
CDC42SE1 #1: total luciferase, z-score = -0.699; total luciferase, % of control = 68; Outcome = inactive
CDC42SE1 #2: total luciferase, z-score = 2.72; total luciferase, % of control = 136; Outcome = inactive
CDC42SE1 #3: total luciferase, z-score = -0.167; total luciferase, % of control = 78.6; Outcome = inactive
HOXB8 #1: total luciferase, z-score = 3.56; total luciferase, % of control = 153; Outcome = active
HOXB8 #2: total luciferase, z-score = -0.912; total luciferase, % of control = 63.7; Outcome = inactive
HOXB8 #3: total luciferase, z-score = 0.282; total luciferase, % of control = 87.5; Outcome = inactive
SACK1B #1: total luciferase, z-score = -0.365; total luciferase, % of control = 74.6; Outcome = inactive
SACK1B #2: total luciferase, z-score = 0.291; total luciferase, % of control = 87.7; Outcome = inactive
SACK1B #3: total luciferase, z-score = 2.2; total luciferase, % of control = 126; Outcome = inactive
NUP205 #1: total luciferase, z-score = -0.789; total luciferase, % of control = 66.2; Outcome = inactive
NUP205 #2: total luciferase, z-score = -0.54; total luciferase, % of control = 71.1; Outcome = inactive
NUP205 #3: total luciferase, z-score = -0.552; total luciferase, % of control = 70.9; Outcome = inactive
GIPC3 #1: total luciferase, z-score = 0.0605; total luciferase, % of control = 83.1; Outcome = inactive
GIPC3 #2: total luciferase, z-score = -0.158; total luciferase, % of control = 78.8; Outcome = inactive
GIPC3 #3: total luciferase, z-score = -0.63; total luciferase, % of control = 69.4; Outcome = inactive
DDB1 #1: total luciferase, z-score = -0.0441; total luciferase, % of control = 81; Outcome = inactive
DDB1 #2: total luciferase, z-score = -0.593; total luciferase, % of control = 70.1; Outcome = inactive
DDB1 #3: total luciferase, z-score = 0.635; total luciferase, % of control = 94.5; Outcome = inactive
